The subject of the series is T1, AgeI methyltransferase (AgeIM) (Agrobacterium gelatinovorum).
T1 sequence: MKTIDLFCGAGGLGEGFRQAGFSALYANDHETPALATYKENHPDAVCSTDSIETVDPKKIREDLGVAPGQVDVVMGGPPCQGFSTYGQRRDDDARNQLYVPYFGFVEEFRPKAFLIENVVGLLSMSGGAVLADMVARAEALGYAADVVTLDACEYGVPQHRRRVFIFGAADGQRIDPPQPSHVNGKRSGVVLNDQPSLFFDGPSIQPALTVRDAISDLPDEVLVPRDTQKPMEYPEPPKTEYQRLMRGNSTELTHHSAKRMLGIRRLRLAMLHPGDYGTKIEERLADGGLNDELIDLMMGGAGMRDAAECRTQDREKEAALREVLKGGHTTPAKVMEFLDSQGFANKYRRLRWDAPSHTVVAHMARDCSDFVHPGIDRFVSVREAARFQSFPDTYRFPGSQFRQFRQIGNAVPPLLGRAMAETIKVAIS
In words: activity in cells. As to conditions: plasmids #1 and #26 carrying ageIM fully resistant to AgeI digestion (in vivo modification); protein in cells; only the site is given.

Where a protein sequence is shown, tags need not be part of it.

Regarding “GACCGGTC (double strand) [AgeI linker sites in plasmid pAge-2]”, the “activity on this sequence” value is “active”.

The record behind these values is US5885818.
